Source: patent US20200278350A1
Results are given in words; binding and its absence hold for the method and conditions named. Some binding calls cover weakened binding; strength is not graded here.

What was measured:
[1] = molecular target: T1, proteolytically cleaved extracellular fragments of PTPµ (human) (UniProt P28827); assay: fluorescent peptide staining of FFPE human glioma tissue
T1 sequence: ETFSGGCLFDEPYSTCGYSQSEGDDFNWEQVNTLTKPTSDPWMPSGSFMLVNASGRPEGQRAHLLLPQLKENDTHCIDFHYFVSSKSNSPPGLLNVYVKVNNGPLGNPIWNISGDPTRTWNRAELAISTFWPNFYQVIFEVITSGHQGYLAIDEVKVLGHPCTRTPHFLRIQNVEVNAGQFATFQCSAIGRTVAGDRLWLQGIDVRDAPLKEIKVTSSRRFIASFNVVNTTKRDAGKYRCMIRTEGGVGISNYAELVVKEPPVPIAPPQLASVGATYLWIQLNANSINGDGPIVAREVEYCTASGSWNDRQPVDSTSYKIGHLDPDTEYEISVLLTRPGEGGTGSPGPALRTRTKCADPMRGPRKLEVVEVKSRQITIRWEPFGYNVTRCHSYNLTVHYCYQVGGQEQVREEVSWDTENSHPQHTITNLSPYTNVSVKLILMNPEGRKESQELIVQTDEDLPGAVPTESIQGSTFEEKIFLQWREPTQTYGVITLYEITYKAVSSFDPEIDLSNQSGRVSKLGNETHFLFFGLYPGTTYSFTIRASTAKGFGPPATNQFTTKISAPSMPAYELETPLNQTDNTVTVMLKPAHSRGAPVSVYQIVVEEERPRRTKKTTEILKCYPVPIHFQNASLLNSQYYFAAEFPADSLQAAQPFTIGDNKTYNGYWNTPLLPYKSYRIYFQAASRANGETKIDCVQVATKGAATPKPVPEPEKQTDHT

[2] = molecular target: T1, proteolytically cleaved extracellular fragments of PTPµ (human); assay: fluorescent peptide staining of FFPE tissue, quantified with Image J
[3] = molecular target: T1, proteolytically cleaved extracellular fragments of PTPµ (human); assay: fluorescent peptide staining of FFPE human glioma tissue microarrays and slides
[4] = molecular target: T1, proteolytically cleaved extracellular fragments of PTPµ (human); assay: fluorescent peptide staining of matched patient tumor and PDX tissue microarray
[5] = molecular target: T1, proteolytically cleaved extracellular fragments of PTPµ (human); assay: fluorescent peptide staining of FFPE human gynecologic cancer tissue microarrays

binding [1]: binds
binding [2]: binds
binding [3]: binds
binding [4]: binds
binding [5]: binds
Binder: GIDVRDAPLKEIKVTSSR (Texas Red coupled to the N-terminal glycine) [SBK4 peptide conjugated to Texas Red]
